Data published in patent publication US20170189504A1, “NOVEL PEPTIDES AND COMBINATION OF PEPTIDES FOR USE IN IMMUNOTHERAPY AGAINST VARIOUS CANCERS” (immatics biotechnologies GmbH, priority 2015, published 2017).
For part of these data: Expression grades refer to the transcript from which the peptide derives; gene names, where given, were looked up from the sequence.

Tests used:
source genes (mRNA) [1] = experiment: Expression profiling of source genes by in-house RNASeq of tumor and normal tissues (Table 18, FIG. 2); set-up: species or system human; key: very highly over-expressed in tumors compared to a panel of normal tissues (+++); highly over-expressed in tumors compared to a panel of normal tissues (++); over-expressed in tumors compared to a panel of normal tissues (+); details: source gene of peptide
HLA-A*02 = experiment: Identification and relative LC-MS quantitation of HLA-A*02-presented tumor-associated peptides on tissue samples (presentation profiles, Tables 13A, 13B, 15, FIG. 1); set-up: species or system human; key to Presentation score NHL / Presentation score CLL / Presentation score BRCA / Presentation score AML / Presentation score GB / Presentation score NSCLC / Presentation score GBC_CCC / Presentation score UEC / Presentation score MEL / Presentation score OSCAR / Presentation score GC / Presentation score UBC / Presentation score OC / Presentation score RCC / Presentation score CRC / Presentation score PCA / Presentation score HCC / Presentation score PC / Presentation score SCLC: specifically presented on tumors (++++); very highly over-presented on tumors compared to a panel of normal tissues (+++); highly over-presented on tumors compared to a panel of normal tissues (++); over-presented on tumors compared to a panel of normal tissues (+); details: for Peptide Presentation on cancer entities: HLA-A*02-binding tumor-associated peptides
source genes (mRNA) [2] = experiment: Gene and exon expression of source genes, TCGA tumor samples compared with normal tissue samples (Lonsdale, 2013) (Table 17); set-up: species or system human; details: cutoff more than 2-fold above highest 75% percentile of normal tissue samples

“86: peptide found in OGG1 (gene looked up) (SVDSHFQEV; listed as Homo sapiens) [compound 86]” was tested, and the “Expression score GB” value (source genes (mRNA) [1]; glioblastoma (N = 24) vs panel of normal tissues) was “+”, the “Expression score NHL” value (source genes (mRNA) [1]; non-Hodgkin lymphoma (N = 10) vs panel of normal tissues) was “+” and the “Presentation score OSCAR” value (HLA-A*02; HLA-A*02 peptides, esophageal cancer, including cancer of the gastric-esophageal junction (N = 17) vs panel of normal tissues (N = 262)) was “++++”. For the same substance, the “Presentation score GC” value (HLA-A*02; HLA-A*02 peptides, gastric cancer (N = 29) vs panel of normal tissues (N = 262)) was “++++”, the “Presentation score OC” value (HLA-A*02; HLA-A*02 peptides, ovarian cancer (N = 20) vs panel of normal tissues (N = 262)) was “++++” and the “Peptide Presentation on cancer entities” value (HLA-A*02; Table 13A, cancer entities on which the peptide was found presented) was “GC, OSCAR, OC”. For the same substance, the “Peptide Presentation on cancer entities” value (HLA-A*02; Table 13B, presentation on additional cancer entities) was “NSCLC, OC”, the “Target coverage: over-expression category of source gene, READ” value (source genes (mRNA) [2]; Colon and rectal adenocarcinoma (N = 167)) was “C (>=5% of tumors above the cutoff, but <20%)” and the “Target coverage: over-expression category of source gene, COAD” value (source genes (mRNA) [2]; Colon and rectal adenocarcinoma (N = 462)) was “C (>=5% of tumors above the cutoff, but <20%)”. For the same substance, the “Target coverage: over-expression category of source gene, GBM” value (source genes (mRNA) [2]; Glioblastoma multiforme (N = 169)) was “B (>= 20% of tumors above the cutoff, but <50%)”, the “Target coverage: over-expression category of source gene, LIHC” value (source genes (mRNA) [2]; Liver hepatocellular carcinoma (N = 374)) was “C (>=5% of tumors above the cutoff, but <20%)” and the “Target coverage: over-expression category of source gene, LGG” value (source genes (mRNA) [2]; Lower grade glioma (N = 534)) was “C (>=5% of tumors above the cutoff, but <20%)”. For the same substance, the “Target coverage: over-expression category of source gene, DLBC” value (source genes (mRNA) [2]; Lymphoid neoplasm diffuse large B-cell lymphoma (N = 48)) was “A (>=50% of tumors above the cutoff)”, the “Target coverage: over-expression category of source gene, OV” value (source genes (mRNA) [2]; Ovarian serous cystadenocarcinoma (N = 309)) was “B (>= 20% of tumors above the cutoff, but <50%)” and the “Target coverage: over-expression category of source gene, KIRP” value (source genes (mRNA) [2]; Papillary kidney carcinoma (N = 291)) was “B (>= 20% of tumors above the cutoff, but <50%)”.
